Source: the supplement of paper PMC3334620
The full ranking holds about 33,000 sequences; the median of “E-score (-0.5 to 0.5)” is about -0.0014, and the highest 2% start at about 0.25. The list shows a part of the results.

Biological target: T1, Cad1 (UniProt P24813)
T1 sequence: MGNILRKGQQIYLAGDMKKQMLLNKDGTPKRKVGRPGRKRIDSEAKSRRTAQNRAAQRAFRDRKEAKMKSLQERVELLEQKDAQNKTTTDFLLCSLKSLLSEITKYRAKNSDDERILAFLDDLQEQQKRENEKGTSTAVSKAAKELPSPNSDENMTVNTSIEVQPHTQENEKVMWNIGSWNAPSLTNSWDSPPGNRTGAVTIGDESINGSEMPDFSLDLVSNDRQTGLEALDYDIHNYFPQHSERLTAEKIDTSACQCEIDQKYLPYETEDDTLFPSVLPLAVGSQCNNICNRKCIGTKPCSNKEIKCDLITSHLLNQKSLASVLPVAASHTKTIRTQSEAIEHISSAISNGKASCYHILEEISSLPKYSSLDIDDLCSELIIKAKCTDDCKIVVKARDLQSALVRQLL
Assay: PBM E-score (8-mer binding enrichment) (E-score (-0.5 to 0.5)); higher = stronger / more preferred TF binding
Settings: protein concentration: 100 nM; construct: GST-full length
Description: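 Universal 'all 10-mer' protein binding microarrays (Agilent AMADID 015681) probed with GST-tagged S. cerevisiae TFs (full-length or DBD) made by in vitro transcription/translation (PURExpress), about 100-200 nM. Bound TF was detected with fluorescent anti-GST. Each ungapped 8-mer (which stands for itself and its reverse complement) is scored by the PBM enrichment score (E-score), a modified Wilcoxon-Mann-Whitney statistic from -0.5 to +0.5, computed with the Universal PBM Analysis Suite. Scale: above 0.35 generally sequence-specific binding.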

Sequence | PBM E-score
AGATTGTA | 0.0103
AAAAAGCC | 0.184
TATCTAAA | 0.0192
GGTTTCGA | 0.0604
ATGGGGAG | -0.223
GCGCTCTA | -0.148
TAACGCGA | 0.124
CCGGTAAG | 0.00932
CTGTACAA | 0.144
TACGGAGA | -0.0721
TGACGAAA | 0.135
GATCGCGA | 0.132
TCAGATGA | 0.0891
CGTAAGCC | 0.166
GTAGGTGA | -0.0704
CGATGGCC | -0.0094
CTCGACTA | 0.0426
AGGGGCCA | -0.203
AGTAATAG | 0.16
GCAGTACC | -0.0449
CAGGGCAC | -0.0726
AACTCAAA | 0.111
AAGCGACG | -0.059
ATCTGTAG | -0.0925

Sequence | PBM E-score
GCCACAGC | -0.115
TACACGGA | 0.144
ACCTACTG | -0.186
CTGCGAGA | -0.253
GATCACCC | -0.0315
CGTGCACC | 0.0179
ACTGCTGG | -0.208
TCCTGTAA | 0.101
ATGTATTC | -0.19
ACACCTGC | 0.0761
ACAATTCA | 0.0258
CTCGGCCA | 0.0029
CTACCCAC | -0.0998
ACGAGTAA | 0.202
GCTCAGTA | 0.0858
CTTATAAC | 0.177
ATACAGCG | -0.0419
AAAGTTTG | -0.0197
AGCGAGAA | 0.0286
ACGTATCG | 0.0407
TCAACAGA | 0.098
CGCAGTGC | -0.172
CAGAAGCA | -0.0564
ACGGCTCA | 0.0668

Given as labelled records: part of the list above.
CAGAAGCA
  PBM E-score: -0.0564
ACGGCTCA
  PBM E-score: 0.0668

Next part:

Sequence | PBM E-score
ATACTAAC | 0.13
ACGTGCTC | -0.188
CACGTAGG | -0.105
CCCGGGCG | -0.0301
ACGTACTG | -0.0913
ACCGTGCC | -0.00064
CTTATTAC | 0.218
CGGAATTC | 0.0825
CAAGTGTC | -0.0435
AACCAGAG | -0.0677
CCAATGTA | -0.123
GCACGACC | -0.154
GTAAAGTA | 0.0722
CCTTAAGA | -0.0638
GAACAGAA | 0.0684
ATTCCCTC | -0.136
AAGCGGGT | -0.0842
ACCTCCTA | -0.189
CAGAATCG | 0.0958
ATATAGAG | -0.0207
GACGGCAC | -0.222
CGACATAC | 0.0648
AGTTGGAT | -0.0953
GCAGGATA | -0.0128

Fetched one by one from above:
Sequence | PBM E-score
ACCGTGCC | -0.00064
GTAAAGTA | 0.0722

Going on with the list.

Sequence | PBM E-score
AGTTACAC | 0.137
ACCTTATA | 0.0886
CCAAACGG | -0.139
ACCTAGAA | 0.0783
TATCATGA | 0.16
GACCCGAC | -0.102
ATTTATAC | 0.226
AATTGGCC | 0.0164
GCCTTCCA | -0.0641
GGGGAGAA | -0.167
CGCCCCCC | -0.5
CGCAGGTA | -0.0773
AGCCGGAC | 0.222
CGTTACTC | 0.0728
CCGGTTAA | -0.247
CCAACCCG | -0.113
GGCTTGAA | -0.0635
CCACTGCA | -0.0522
CAAGATGG | -0.217
CCTAGCTC | -0.181
TAATCGAA | 0.35
GGTTTTAA | -0.0185
